Binding data for two molecules are collected here from article PMC3371350.

No constants are given. Whether binding was seen depends on the method and setting. Binding seen in cells or lysates may run through a third protein. Some entries that bind do so weakly or less than the wild type.

Experiment [1] addresses T1, integrin α 11 (human (endogenous in Het-1A)) (UniProt Q9UKX5).
T1 sequence: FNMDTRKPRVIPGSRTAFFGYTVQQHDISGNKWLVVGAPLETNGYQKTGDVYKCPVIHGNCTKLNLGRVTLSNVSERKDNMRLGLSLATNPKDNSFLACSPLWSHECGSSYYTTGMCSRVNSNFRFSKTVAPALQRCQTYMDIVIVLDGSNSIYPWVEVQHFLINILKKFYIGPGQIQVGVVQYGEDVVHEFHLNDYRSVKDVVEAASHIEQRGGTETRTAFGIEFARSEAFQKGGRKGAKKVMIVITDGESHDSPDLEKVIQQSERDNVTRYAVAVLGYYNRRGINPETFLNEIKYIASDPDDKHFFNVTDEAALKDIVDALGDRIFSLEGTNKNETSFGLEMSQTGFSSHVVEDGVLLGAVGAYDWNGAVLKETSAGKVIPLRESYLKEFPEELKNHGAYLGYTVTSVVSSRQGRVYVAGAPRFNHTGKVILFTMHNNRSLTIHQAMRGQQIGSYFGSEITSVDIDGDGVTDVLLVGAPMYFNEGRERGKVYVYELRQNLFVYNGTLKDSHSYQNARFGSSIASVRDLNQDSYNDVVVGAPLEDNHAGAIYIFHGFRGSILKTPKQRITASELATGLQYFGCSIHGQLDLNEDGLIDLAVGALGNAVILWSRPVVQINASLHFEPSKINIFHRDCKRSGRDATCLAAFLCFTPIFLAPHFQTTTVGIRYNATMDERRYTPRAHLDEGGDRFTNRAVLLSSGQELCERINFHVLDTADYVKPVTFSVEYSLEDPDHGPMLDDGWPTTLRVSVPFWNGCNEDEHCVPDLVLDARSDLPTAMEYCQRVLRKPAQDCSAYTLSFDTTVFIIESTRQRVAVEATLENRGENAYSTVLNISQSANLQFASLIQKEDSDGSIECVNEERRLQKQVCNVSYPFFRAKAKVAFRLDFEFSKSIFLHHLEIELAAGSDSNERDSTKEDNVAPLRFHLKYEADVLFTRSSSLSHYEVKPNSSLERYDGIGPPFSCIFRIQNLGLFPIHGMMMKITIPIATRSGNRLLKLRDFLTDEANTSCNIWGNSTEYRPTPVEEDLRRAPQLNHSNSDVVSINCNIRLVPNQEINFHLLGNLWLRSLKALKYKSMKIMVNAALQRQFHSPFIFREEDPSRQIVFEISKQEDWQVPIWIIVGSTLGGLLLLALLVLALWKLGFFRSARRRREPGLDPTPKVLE
The experiment is described as follows: proximity ligation; Duolink PLA in situ on Het-1A cells treated with recombinant CCN1 (100 ng/mL, 6 hours), fixed in cold acetone; goat anti-integrin α 11 coupled with rabbit anti-CCN1; probes in proximity of less than 40 nm; only the binder purified.

Experiment [2] deals with T1, integrin α 11 (human (endogenous in Het-1A)). Description: condition: only with excessive CCN1 antibody added to the cell culture; proximity ligation; Duolink PLA in situ on Het-1A cells treated with recombinant CCN1 (100 ng/mL, 6 hours), fixed in cold acetone; goat anti-integrin α 11 coupled with rabbit anti-CCN1; probes in proximity of less than 40 nm; only the binder purified.

The target is the same in experiment [3]. Description: proximity ligation; Duolink PLA in situ on nontreated (control) Het-1A cells, fixed in cold acetone; goat anti-integrin α 11 coupled with rabbit anti-CCN1; both proteins endogenous.

B1: recombinant human CCN1 protein (ligand, UniProt O00622 25-381)
chain: TCPAACHCPLEAPKCAPGVGLVRDGCGCCKVCAKQLNEDCSKTQPCDHTKGLECNFGASSTALKGICRAQSEGRPCEYNSRIYQNGESFQPNCKHQCTCIDGAVGCIPLCPQELSLPNLGCPNPRLVKVTGQCCEEWVCDEDSIKDPMEDQDGLLGKELGFDASEVELTRNNELIAVGKGSSLKRLPVFGMEPRILYNPLQGQKCIVQTTSWSQCSKTCGTGISTRVTNDNPECRLVKETRICEVRPCGQPVYSSLKKGKKCSKTKKSPEPVRFTYAGCLSVKKYRPKYCGSCVDGRCCTPQLTRTVKMRFRCEDGETFSKNVMMIQSCKCNYNCPHANEAAFPFYRLFNDIHKFRD
Turning to B1, the binding entry is listed as “binds” in experiment [1] and “no binding” in experiment [2].

B2: endogenous CCN1 (protein, UniProt O00622 25-381)
chain: TCPAACHCPLEAPKCAPGVGLVRDGCGCCKVCAKQLNEDCSKTQPCDHTKGLECNFGASSTALKGICRAQSEGRPCEYNSRIYQNGESFQPNCKHQCTCIDGAVGCIPLCPQELSLPNLGCPNPRLVKVTGQCCEEWVCDEDSIKDPMEDQDGLLGKELGFDASEVELTRNNELIAVGKGSSLKRLPVFGMEPRILYNPLQGQKCIVQTTSWSQCSKTCGTGISTRVTNDNPECRLVKETRICEVRPCGQPVYSSLKKGKKCSKTKKSPEPVRFTYAGCLSVKKYRPKYCGSCVDGRCCTPQLTRTVKMRFRCEDGETFSKNVMMIQSCKCNYNCPHANEAAFPFYRLFNDIHKFRD
Take B2: the binding result in experiment [3] was “binds weakly”.
